Data reported in US6863888.
These are yes or no findings as the source states them, for the method shown. For some assays here: Binding seen in cells or lysates may run through a third protein. Some binding calls cover weakened binding; strength is not graded here.

Amino acid sequences for entries named in this document (tags omitted). A change or cut given only in a name is not applied to a line headed by its entry.
UniProt P05412: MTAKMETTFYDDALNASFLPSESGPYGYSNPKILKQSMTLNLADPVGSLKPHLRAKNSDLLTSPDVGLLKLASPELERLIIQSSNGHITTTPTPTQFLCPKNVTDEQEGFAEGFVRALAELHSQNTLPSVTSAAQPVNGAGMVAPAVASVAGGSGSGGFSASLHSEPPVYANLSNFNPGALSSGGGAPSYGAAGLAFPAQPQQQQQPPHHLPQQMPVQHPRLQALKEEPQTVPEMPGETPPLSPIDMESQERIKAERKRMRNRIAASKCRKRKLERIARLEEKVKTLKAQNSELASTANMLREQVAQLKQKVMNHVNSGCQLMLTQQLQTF

Legend:
[1] = molecular target: GSTcJun(wt), glutathione-S-transferase fused to c-Jun AA 1-223 (human) [GST: P08515]; test: GSTcJun(WT)-GSH-agarose pull-down from extracts of K562, U937, Jurkat, HeLa, F9, Ha-ras-transformed FR3T3 and QT6 cells, in-gel kinase assay
[2] = molecular target: GSTcJun(wt), glutathione-S-transferase fused to c-Jun AA 1-223 (human) [GST: P08515]; test: solid-phase kinase assay, extracts of Ha-ras-transformed FR3T3, UV-irradiated HeLa or TPA-stimulated Jurkat cells on GSH-agarose beads
[3] = molecular target: GSTcJun(Ala63/73), GST fused to c-Jun AA 1-223 with Ser 63 and Ser 73 converted to alanines (human) (UniProt P05412); test: as above
[4] = molecular target: GSTcJun(wt), glutathione-S-transferase fused to c-Jun AA 1-223 (human) [GST: P08515]; test: GST-cJun(1-223)-GSH agarose beads with Jurkat whole cell extract, solid-state kinase assay
[5] = molecular target: GSTcJun(wt), glutathione-S-transferase fused to c-Jun AA 1-223 (human) [GST: P08515]; test: refers to Example 6, GSTcJun pull-down and in-gel kinase assay
[6] = molecular target: GST-cJun(1-79), GST fused to c-Jun AA 1-79 (human) (UniProt P05412); test: GSTcJun deletion mutants on GSH-agarose, UV-irradiated HeLa extract; solid-phase kinase assay and eluted-kinase assay
[7] = molecular target: GSTcJun C-terminal truncation ending at c-Jun a.a. 93 (human) (UniProt P05412); test: as above
[8] = molecular target: GSTcJun(33-223), GST fused to c-Jun AA 33-223 (human) (UniProt P05412); test: as above
[9] = molecular target: GSTcJun(wt), glutathione-S-transferase fused to c-Jun AA 1-223 (human) [GST: P08515]; test: GST fusion proteins on GSH-agarose, cell extract; solid-phase kinase assay and eluted-kinase assay
[10] = molecular target: GSTcJun(wt), glutathione-S-transferase fused to c-Jun AA 1-223 (human) [GST: P08515]; test: GST-cJun(1-223)-GSH agarose pull-down from Jurkat whole cell extract, in-gel kinase assay
[11] = molecular target: GSTcJun(Ch), GST fused to the activation domain (AA 1-144) of chicken c-Jun (chicken) [GST: P08515]; test: GST fusion proteins on GSH-agarose, TPA-activated Jurkat extract; solid-phase kinase assay and eluted-kinase assay
[12] = molecular target: GSTcJun(wt), glutathione-S-transferase fused to c-Jun AA 1-223 (human) [GST: P08515]; test: elution from GSTcJun(wt)-GSH-agarose beads loaded with TPA-stimulated Jurkat extract, eluted kinase assayed on recombinant c-Jun
[13] = molecular target: GSTcJun(wt), glutathione-S-transferase fused to c-Jun AA 1-223 (human) [GST: P08515]; test: GSTcJun-bound protein fraction of TPA-stimulated Jurkat extract, SDS-PAGE, renaturation and kinase assay
[14] = molecular target: GSTcJun(wt), glutathione-S-transferase fused to c-Jun AA 1-223 (human) [GST: P08515]; test: solid-phase kinase assay, FR3T3 nuclear and cytosolic extracts on GSTcJun(wt)-GSH-agarose beads

binding [2]: binds
binding [3]: binds
binding [4]: binds
binding [5]: binds
binding [6]: binds
binding [7]: binds
binding [8]: binds
binding [9]: binds
binding [10]: binds
binding [11]: binds
binding [12]: binds
binding [13]: binds
binding [14]: binds
Substance: c-Jun N-terminal protein kinase (JNK), 46 kD form, endogenous kinase from cell extracts (from UniProt P45983-2 1-384) (enzyme)
binding [1]: binds
